Reference: PubChem BioAssay AID284 (DTP/NCI, 2004)
The list does not hold the whole screen: it gathers tests that were run many times, whatever their T/C, doses with no T/C, and many T/C values between a quarter and a half above the control. Further doses and runs are listed elsewhere. T/C: endpoint of the treated group in % of that of the vehicle group. Some doses have a count of surviving animals in place of a T/C: the source holds a T/C of zero for them, seemingly a mark for toxic or unscored doses. Some survivor counts are full or nearly so, which does not show that the dose was tolerated: the source hardly ever lists a survival T/C far under the control, and the zero likely stands for such cases as well. Counts of survivors are from the toxicity check (mostly the fifth day) where no day follows; animals may have died later. Schedule codes are those of the source, taken here to give the interval after Q, in days (D) or hours (H), and the number of doses after X. Some schedule codes hold Z or #, which are not explained here. Some entries were tested several times; the results are listed from low to high. Where survival is the endpoint, the PubChem record calls one and a half times the control and up active, and a quarter to a half above the control has no call in these data; cut-offs in other NCI protocols can differ. Some T/C values carry the count of animals alive at the toxicity check (mostly the fifth day); where none is given, no animal had died by that day.

Tested on: BDF1 mice, L1210/MTX-resistant leukemia ip, survival T/C
Experiment: NCI In Vivo Anticancer Drug Screen. Data for tumor model L1210 Leukemia resistant to Methotrexate; NSC 740 (intraperitoneal) in B6D2F1 (BDF1) mice
Settings: T/C endpoint: mean survival time, higher T/C = longer survival
Procedure: The antitumor activity of compounds was measured in mice bearing transplantable tumors. Survival or tumor size were measured and the results are expressed as the measurement made in the treated group (T) divided by the measurement made in the vehicle treated control group (C). The tumor model used in this assay is L1210 Leukemia resistant to Methotrexate; NSC 740 (intraperitoneal) in B6D2F1 (BDF1) mice

[1] = dose: 0.25 mg/kg/injection, schedule: Q01DX Z (ip), vehicle: saline
[2] = dose: 0.5 mg/kg/injection, schedule: Q01DX Z (ip), vehicle: saline
[3] = dose: 1.0 mg/kg/injection, schedule: Q01DX Z (ip), vehicle: saline
[4] = dose: 40.0 mg/kg/injection, schedule: Q01DX Z (ip), vehicle: other
[5] = dose: 80.0 mg/kg/injection, schedule: Q01DX Z (ip), vehicle: other
[6] = dose: 6.3 mg/kg/injection, schedule: Q01DX Z (ip), vehicle: methylcellulose (MC)

**Q.** Which results are given for S=P(N1CCOCC1)(N1CC1)N1CC1?
**A.** survivor count (dose: 4.0 mg/kg/injection, schedule: Q01DX Z (ip), vehicle: carboxymethylcellulose (CMC)): 6 of 6; survivor count (dose: 40.0 mg/kg/injection, schedule: Q01DX Z (ip), vehicle: carboxymethylcellulose (CMC)): 6 of 6; survivor count (dose: 80.0 mg/kg/injection, schedule: Q01DX Z (ip), vehicle: carboxymethylcellulose (CMC)): 6 of 6

**Q.** Which T/C [1] does the source give for C1CN1c1nc(N2CC2)nc(N2CC2)n1 here?
**A.** The T/C was 132 and 140 % of control.

**Q.** And the survivor count [1]?
**A.** The survivor count was 6 of 6.

**Q.** And the T/C [2]?
**A.** The T/C was 86, 88, 101 % of control.

**Q.** And the survivor count [2]?
**A.** The survivor count was 1 of 6 and 3 of 6.

**Q.** What about the T/C [3] of the same compound?
**A.** The T/C was 102 and 103 % of control.

**Q.** And the survivor count [3]?
**A.** Its survivor count is 0 of 6 and 6 of 6.

**Q.** And the survivor count (dose: 63.0 micrograms/kg/injection, schedule: Q01DX Z (ip), vehicle: saline)?
**A.** The survivor count was 6 of 6.

**Q.** And the T/C (dose: 125.0 micrograms/kg/injection, schedule: Q01DX Z (ip), vehicle: saline)?
**A.** Its T/C is 126 % of control.

**Q.** What about the T/C (dose: 250.0 micrograms/kg/injection, schedule: Q01DX Z (ip), vehicle: saline) of the same compound?
**A.** Its T/C is 132 % of control [5 of 6 alive].

**Q.** For Nc1nc2n[nH]nc2c(=O)[nH]1, which survivor count (dose: 25.0 mg/kg/injection, schedule: Q01DX010 (ip), vehicle: alkali diluted with saline) is on record?
**A.** Its survivor count is 6 of 6.

**Q.** What about the T/C [4] of the same compound?
**A.** Its T/C is 90, 100, 104, 123 % of control.

**Q.** And the survivor count [4]?
**A.** Its survivor count is 1 of 6 and 5 of 6.

**Q.** What about the T/C (dose: 75.0 mg/kg/injection, schedule: Q01DX Z (ip), vehicle: water) of the same compound?
**A.** Its T/C is 135 % of control.

**Q.** What about the T/C [5] of the same compound?
**A.** The T/C was 91, 92, 108, 112, 125 % of control [5 of 6 alive].

**Q.** And the survivor count [5]?
**A.** Its survivor count is 1 of 6.

**Q.** And the T/C (dose: 100.0 mg/kg/injection, schedule: Q01DX Z (ip), vehicle: water)?
**A.** The T/C was 127 % of control.

**Q.** What about the survivor count (dose: 400.0 mg/kg/injection, schedule: Q01DX Z (ip), vehicle: water) of the same compound?
**A.** The survivor count was 6 of 6.

**Q.** What about the survivor count (dose: 500.0 mg/kg/injection, schedule: Q01DX Z (ip), vehicle: water) of the same compound?
**A.** The survivor count was 3 of 6.

**Q.** Which T/C [6] does the source give for O=C(Nc1ccc(C2=NCCN2)cc1)c1cccc(C(=O)Nc2ccc(C3=NCCN3)cc2)c1 here?
**A.** The T/C was 133 % of control.

**Q.** Cc1cc(N(CCCl)CCCl)ccc1N=Nc1ccccc1C(=O)O was tested. Which survivor count (dose: 1.5 mg/kg/injection, schedule: Q01DX Z (ip), vehicle: carboxymethylcellulose (CMC)) did it give?
**A.** The survivor count was 6 of 6.

**Q.** And the T/C (dose: 2.0 mg/kg/injection, schedule: Q01DX Z (ip), vehicle: carboxymethylcellulose (CMC))?
**A.** Its T/C is 128 % of control.

**Q.** What about the survivor count (dose: 15.0 mg/kg/injection, schedule: Q01DX Z (ip), vehicle: carboxymethylcellulose (CMC)) of the same compound?
**A.** Its survivor count is 5 of 6.

**Q.** What about the survivor count (dose: 20.0 mg/kg/injection, schedule: Q01DX Z (ip), vehicle: carboxymethylcellulose (CMC)) of the same compound?
**A.** The survivor count was 6 of 6.

**Q.** And the survivor count (dose: 30.0 mg/kg/injection, schedule: Q01DX Z (ip), vehicle: carboxymethylcellulose (CMC))?
**A.** Its survivor count is 6 of 6.

**Q.** And the survivor count (dose: 37.5 mg/kg/injection, schedule: Q01DX Z (ip), vehicle: carboxymethylcellulose (CMC))?
**A.** The survivor count was 6 of 6.

**Q.** What about the survivor count (dose: 40.0 mg/kg/injection, schedule: Q01DX010 (ip), vehicle: saline) of the same compound?
**A.** The survivor count was 6 of 6.

**Q.** What about the survivor count (dose: 50.0 mg/kg/injection, schedule: Q01DX Z (ip), vehicle: carboxymethylcellulose (CMC)) of the same compound?
**A.** The survivor count was 6 of 6.

**Q.** What about the survivor count (dose: 75.0 mg/kg/injection, schedule: Q01DX Z (ip), vehicle: carboxymethylcellulose (CMC)) of the same compound?
**A.** Its survivor count is 5 of 6.

**Q.** What about the survivor count (dose: 100.0 mg/kg/injection, schedule: Q01DX Z (ip), vehicle: carboxymethylcellulose (CMC)) of the same compound?
**A.** Its survivor count is 5 of 6.

**Q.** Which survivor count [6] does the source give for O=C1N(Cl)C(=O)C(c2ccc(Cl)cc2)(c2ccc(Cl)cc2)N1Cl here?
**A.** The survivor count was 6 of 6.

**Q.** What about the survivor count (dose: 12.5 mg/kg/injection, schedule: Q01DX Z (ip), vehicle: methylcellulose (MC)) of the same compound?
**A.** Its survivor count is 6 of 6.

**Q.** For C[C@]12CCC(=O)C=C1CC[C@@H]1[C@@H]2C(=O)C[C@@]2(C)[C@H]1CC[C@]2(O)C(=O)CO, which survivor count (dose: 100.0 mg/kg/injection, schedule: Q01DX Z (sc), vehicle: steroid suspending solution) is on record?
**A.** Its survivor count is 7 of 7.

**Q.** And the survivor count (dose: 125.0 mg/kg/injection, schedule: Q01DX Z (sc), vehicle: steroid suspending solution)?
**A.** Its survivor count is 6 of 6.

**Q.** What about the survivor count (dose: 200.0 mg/kg/injection, schedule: Q01DX Z (sc), vehicle: steroid suspending solution) of the same compound?
**A.** The survivor count was 6 of 6 and 7 of 7.

**Q.** What about the survivor count (dose: 250.0 mg/kg/injection, schedule: Q01DX Z (sc), vehicle: steroid suspending solution) of the same compound?
**A.** Its survivor count is 6 of 6.

**Q.** And the survivor count (dose: 400.0 mg/kg/injection, schedule: Q01DX Z (sc), vehicle: steroid suspending solution)?
**A.** The survivor count was 6 of 6 and 7 of 7.

**Q.** What about the survivor count (dose: 500.0 mg/kg/injection, schedule: Q01DX Z (sc), vehicle: steroid suspending solution) of the same compound?
**A.** The survivor count was 6 of 6.
